The other results are listed elsewhere or left out. Further columns of the screen follow, without active or inactive calls. Most of these compounds were active or inconclusive in the main read-out, so they are no random draw. Potencies come from curve fits of mixed quality, noted in brackets.

The nature of the test: qHTS Assay for Lipid Storage Modulators in Drosophila S3 Cells.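 As to cell number change: cells counted by Cell Tracker Red CMTPX staining in the red channel.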 The following applies: BODIPY lipid droplet fluorescence, 18-24 h; for cell number change: measured here: cell count max response, cells fed with added oleic acid. In a few lines: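 Drosophila S3 cells got compounds at several concentrations plus oleic acid (400 uM solution). Laser-scanning cytometry with 488 nm excitation read lipid droplets at 500-530 nm and cells at 575-640 nm. Percent activity was relative to 20 uM Triacsin C.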
In general terms: Quantitative high-throughput screening tests each substance at several concentrations.

Setting [1] is: measured here: lipid fluorescence (Fed channel) AC50, cells fed with added oleic acid.
[2] abbreviates: measured here: cell number channel AC50, cells fed with added oleic acid.

Take `O=C(C[n+]1cccc(C(=O)N/N=C/c2ccc(Br)cc2)c1)c1ccccc1`: the cell number change was 0.268%. In addition, the AC50 under setting [1] is 29.1 µM [rising, single point].
As for `Cc1nc(C)c(C(=O)Nc2ncc([N+](=O)[O-])s2)o1`, the cell number change was -53.6%. Besides, under setting [2], the AC50 was 2.91 µM [falling, partial curve]. The AC50 under setting [1] was 0.651 µM [falling, full curve].
`O=C(CSc1ncccn1)N/N=C/c1ccc2c(c1)OCO2`: the cell number change was 68.8%. In addition, the AC50 under setting [2] is 2.91 µM [rising, partial curve]. Under setting [1], the AC50 is 29.1 µM [rising, single point].
Take `O=C(CSc1ncnc2c1nnn2-c1ccc(F)cc1)NCc1ccco1`: the cell number change was -43.1%. Moreover, the AC50 under setting [2] is 23.1 µM [falling, partial curve, poor fit]. Moreover, the AC50 under setting [1] is 23.1 µM [falling, single point].
Take `Cc1cc(C)nc(SCC(=O)N/N=C/C=C/c2ccccc2)n1`: the cell number change amounted to 6.26%. Under setting [2], the AC50 was 6.51 µM [falling, single point].
For the compound `Cc1c(F)cccc1NS(=O)(=O)c1ccc2c(c1)c(=O)n(C)c(=O)n2C`, the cell number change worked out at 3.75%.
In the case of `Cc1ccc(S(=O)(=O)N2CCN(S(C)(=O)=O)C2c2ccccc2)cc1` (configuration not stated), the cell number change is -88.6%. The AC50 under setting [2] is 23.1 µM [falling, partial curve]. In addition, the AC50 under setting [1] is 23.1 µM [falling, partial curve].
Turning to `N#CCCN(C(=O)COC(=O)c1ccc2ccccc2n1)c1ccccc1`, the cell number change was determined as 13.6%. Besides, the AC50 under setting [1] was 0.103 µM [rising, full curve, poor fit].
With `COc1c(C)cccc1C(=O)Nc1cc(Cl)ccc1N1CCOCC1`, the AC50 was 2.06 µM [rising, partial curve] under setting [2] and 2.06 µM [rising, partial curve] under setting [1].
As to `Cc1ccc(C(=O)OCC(=O)NC2CCCC(C)C2C)cc1S(=O)(=O)N1CCCCC1` (configuration not stated), the cell number change was -0.188%. Further, under setting [1], the AC50 was 2.31 µM [falling, full curve].
`O=C(c1cc(-c2cccnc2)nc2ccccc12)N1CCCc2ccccc21`: the cell number change was 27.2%. Moreover, under setting [1], the AC50 is 1.84 µM [rising, partial curve, poor fit].
`O=C(Oc1cccc(-c2cnc3ccccc3n2)c1)c1ccco1`: the cell number change is -33.8%. In addition, the AC50 under setting [2] is 16.4 µM [falling, partial curve, poor fit].
For `COc1ccccc1CC(=O)Nc1ccc2c(c1)C(=O)NC2=O`, the cell number change came to 19.1%. Further, the AC50 under setting [2] is 0.00461 µM [falling, full curve, poor fit].
`CCCCNC(=O)c1ccccc1NC(=O)CCC`: the cell number change is -3.5%. Under setting [2], the AC50 is 6.51 µM [falling, single point]. In addition, the AC50 under setting [1] was 6.51 µM [falling, single point].
As for `C=CCNC(=O)CSc1ncc2c(n1)-c1c(csc1SC)CC2`, the cell number change came to 26%. In addition, under setting [1], the AC50 was 0.0326 µM [rising, full curve, poor fit].
In the case of `CSc1nc2sc3c(c2c2nncn12)CCC3`, the AC50 under setting [1] was 2.91 µM [rising, full curve].
In the case of `CC1(C)Cc2c(cnn2-c2ccccc2)C(NC(=O)CCc2ccncc2)C1` (configuration not stated), the cell number change is -8.91%. Moreover, the half-maximal activity concentration (AC50) under setting [1] was 29.1 µM [rising, single point].
`COc1cccc(/C=N/Nc2ncnc(Cl)c2N)c1O`: the cell number change was -35.1%. Moreover, the AC50 under setting [2] is 20.6 µM [falling, single point]. Further, under setting [1], the AC50 was 25.9 µM [falling, single point].
With `CC1=CCC2C(=O)N(c3cccc(C(=O)Nc4ccc(Cl)cc4)c3)C(=O)C2C1` (configuration not stated), the cell number change is -45.3%.
Consider `COc1ccccc1C(=O)NC(=O)COC(=O)c1ccc(Cl)nc1`, for which the AC50 under setting [1] is 32.6 µM [rising, single point].
On to `N#Cc1cc2c(nc1SCC(=O)Nc1sc3c(c1C#N)CCC3)CCCCCC2`, for which the cell number change was found to be 2.89%. Further, the AC50 under setting [2] was 1.46 µM [rising, partial curve]. Also, under setting [1], the AC50 was 0.731 µM [rising, partial curve, poor fit].
As for `CS(=O)(=O)Cc1ccc(C(=O)N2CCCC2c2cccs2)cc1` (configuration not stated), the cell number change was found to be 12.2%.
Turning to `CN(C)S(=O)(=O)c1cccc(-c2cn3cccnc3n2)c1`, the cell number change was determined as 28.5%. The AC50 under setting [1] is 5.17 µM [rising, partial curve].
On to `Cc1cc(=O)[nH]c(N=N/C(=N/Nc2ccccc2C)c2ccccc2)n1`, for which the cell number change stood at 0.884%. Besides, the AC50 under setting [1] is 4.61 µM [rising, single point].
Consider `CCOC(=O)c1nnc(-c2ccc(C)cc2)nc1Oc1ccc(Cl)cc1Cl`, for which the cell number change was found to be 17.8%. Besides, the AC50 under setting [1] was 3.26 µM [falling, single point].
As to `Cc1c(C(=O)Nc2cccc(F)c2)cnn1-c1ccccc1`, the cell number change is 18.9%. Also, the AC50 under setting [1] was 18.4 µM [falling, single point].
Consider `O=C(NC(=S)NCc1nc2ccccc2[nH]1)c1ccccc1F`, for which the cell number change turned out to be 59.2%. Moreover, under setting [2], the AC50 was 11.6 µM [rising, partial curve]. Also, the AC50 under setting [1] is 13 µM [rising, partial curve].
Consider `CC1(C)CC(=O)C=C(NCCCNC2CCCCC2)C1`, for which the cell number change was 17%. For the same compound, the AC50 under setting [1] is 0.206 µM [rising, full curve].
Turning to `CCOc1ccc(Nc2nc(N)nc(CN(C)C3CCCCC3)n2)cc1`, the cell number change came out at 38%. The AC50 under setting [2] was 29.1 µM [rising, single point]. Also, the AC50 under setting [1] was 0.82 µM [rising, full curve].
`COc1ccc(C(OCC2CO2)c2ccc(OC)cc2)cc1` (configuration not stated): the cell number change amounted to 15.5%. Further, under setting [2], the AC50 was 0.058 µM [falling, full curve, poor fit].
Take `FC(F)Oc1ccc(-n2cc(-c3ccc(Cl)cc3)[n+]3c2CCCCC3)cc1`: the cell number change was determined as 3.27%. For the same compound, the AC50 under setting [1] is 0.517 µM [falling, full curve].
Take `COc1ccc(S(=O)(=O)N(C)CC(=O)Nc2ccccc2C(F)(F)F)cc1Cl`: the AC50 under setting [1] is 0.58 µM [rising, single point].
In the case of `O=[N+]([O-])c1ccc(Nc2ccccc2)c2nonc12`, the cell number change was -31.2%. In addition, the AC50 under setting [2] was 29.1 µM [falling, single point]. Besides, under setting [1], the AC50 is 25.9 µM [falling, single point].
As for `O=C(Cn1ncc2c1-c1ccccc1OC2)Nc1ccc(S(=O)(=O)N2CCCCC2)cc1`, the cell number change was determined as 28.4%. Further, the AC50 under setting [1] was 0.651 µM [falling, full curve].
On to `CCN(C(=O)COc1ccccc1)c1nnc(-c2cccnc2)s1`, for which the cell number change stood at 57.6%. The AC50 under setting [2] is 0.461 µM [rising, partial curve]. In addition, the AC50 under setting [1] was 6.51 µM [rising, partial curve].
Take `O=C(Nc1cccc(Cl)c1)Nc1ccc(Cl)cn1`: the cell number change worked out at 6.31%. In addition, the AC50 under setting [1] was 29.1 µM [falling, single point].

The AC50 is the midpoint of the concentration-response curve, whichever way the signal moves. The low end stands for greater potency, the high end for weaker potency.

Source of the values: PubChem BioAssay AID2685 (National Center for Advancing Translational Sciences (NCATS), 2010).
